Assay results reported in patent US20120277143A1.
Results are given in words; binding and its absence hold for the method and conditions named. Some entries that bind do so weakly or less than the wild type.

Protein sequences, listed by entry. Tags and fused reporters are not part of them. Lines headed by an entry give the natural chain unless they say otherwise; changes in a name come on top. Chains listed by the source or under a name are the forms on record and can include a tag or linker.
cyno IL13 (Q0PW92, form named): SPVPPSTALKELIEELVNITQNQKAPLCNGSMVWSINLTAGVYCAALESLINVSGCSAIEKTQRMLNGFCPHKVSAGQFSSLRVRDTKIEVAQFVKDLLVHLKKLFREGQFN

Biological target: cyno IL13 (cynomolgus monkey) (UniProt Q0PW92)
Assay: not restated; complex with cyno IL13 crystallized

B1: IL13 binding protein 6G9 (designed binder)
chain: DLGKKLLEAARAGQDDEVRILMANGADVNARDSYGSTPLHLAAREGHLEIVEVLLKYGADVNAKDMIGDTPLHLAAYRGHLEIVEVLLKNGADVNASDITGETPLHLAAQIGHLEIVEVLLKYGADVNAQDKFGKTAFDISIDNGNEDLAEILQKLN
binding: binds
